Laboratory results taken from PMC11316025.
Residue numbers refer to the chain shown, from its start. Numbers in names are those of the source. These are yes or no findings as the source states them, for the method shown. Binding seen in cells or lysates may run through a third protein. Binding calls can cover weak binding; strength is not graded here. For part of these data: Tags and fused reporters may be left off the sequences shown.

Sequences of proteins named here, by UniProt entry; tags and fusion partners are left off. A change or cut given only in a name is not applied to a line headed by its entry.
UniProt Q8WWW0: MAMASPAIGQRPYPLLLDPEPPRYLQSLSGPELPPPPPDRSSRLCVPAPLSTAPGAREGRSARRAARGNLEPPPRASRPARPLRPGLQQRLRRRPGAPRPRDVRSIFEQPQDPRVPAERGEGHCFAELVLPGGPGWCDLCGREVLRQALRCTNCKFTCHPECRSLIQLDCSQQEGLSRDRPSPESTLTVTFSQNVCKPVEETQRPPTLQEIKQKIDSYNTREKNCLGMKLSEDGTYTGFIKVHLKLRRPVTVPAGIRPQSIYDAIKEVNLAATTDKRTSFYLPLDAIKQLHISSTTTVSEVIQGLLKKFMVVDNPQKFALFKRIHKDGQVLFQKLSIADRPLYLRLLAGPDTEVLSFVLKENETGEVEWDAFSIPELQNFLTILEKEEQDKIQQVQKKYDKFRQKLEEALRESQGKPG
UniProt Q8NHQ8: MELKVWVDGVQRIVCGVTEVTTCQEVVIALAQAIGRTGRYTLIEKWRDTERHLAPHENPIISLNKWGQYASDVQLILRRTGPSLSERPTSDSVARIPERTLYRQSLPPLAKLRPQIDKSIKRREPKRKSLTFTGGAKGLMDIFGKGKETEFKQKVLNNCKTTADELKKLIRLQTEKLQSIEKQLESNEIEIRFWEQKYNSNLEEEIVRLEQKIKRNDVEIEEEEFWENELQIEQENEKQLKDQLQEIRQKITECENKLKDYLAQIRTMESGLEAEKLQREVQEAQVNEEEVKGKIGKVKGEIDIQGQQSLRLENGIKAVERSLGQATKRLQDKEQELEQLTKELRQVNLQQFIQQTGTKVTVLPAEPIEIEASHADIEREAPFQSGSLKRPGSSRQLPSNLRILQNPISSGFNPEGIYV
UniProt Q86WH2: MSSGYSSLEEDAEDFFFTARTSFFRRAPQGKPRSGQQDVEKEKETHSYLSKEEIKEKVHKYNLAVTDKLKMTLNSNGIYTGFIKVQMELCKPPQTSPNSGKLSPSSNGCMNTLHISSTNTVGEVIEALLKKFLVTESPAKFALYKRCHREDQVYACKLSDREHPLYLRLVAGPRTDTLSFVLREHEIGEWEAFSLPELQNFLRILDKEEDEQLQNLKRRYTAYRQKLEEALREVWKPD
UniProt Q9H2L5: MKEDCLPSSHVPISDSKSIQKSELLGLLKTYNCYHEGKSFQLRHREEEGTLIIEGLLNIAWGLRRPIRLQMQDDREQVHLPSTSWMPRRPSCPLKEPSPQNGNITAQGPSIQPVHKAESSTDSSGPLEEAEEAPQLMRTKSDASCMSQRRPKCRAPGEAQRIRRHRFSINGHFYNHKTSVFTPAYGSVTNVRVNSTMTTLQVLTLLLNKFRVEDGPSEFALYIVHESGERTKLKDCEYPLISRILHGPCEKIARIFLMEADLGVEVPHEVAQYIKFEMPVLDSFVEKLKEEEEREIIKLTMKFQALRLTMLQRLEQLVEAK

B1: VENUS-RAP2B-G12V (protein, UniProt P61225 1-183)
chain: MREYKVVVLGSVGVGKSALTVQFVTGSFIEKYDPTIEDFYRKEIEVDSSPSVLEILDTAGTEQFASMRDLYIKNGQGFILVYSLVNQQSFQDIKPMRDQIIRVKRYERVPMILVGNKVDLEGEREVSYGEGKALAEEWSCPFMETSAKNKASVDELFAEIVRQMNYAAQPNGDEGCCSACVIL
B2: VENUS-RAP2C-G12V (protein, UniProt Q9Y3L5 1-183)
chain: MREYKVVVLGSVGVGKSALTVQFVTGTFIEKYDPTIEDFYRKEIEVDSSPSVLEILDTAGTEQFASMRDLYIKNGQGFILVYSLVNQQSFQDIKPMRDQIVRVKRYEKVPLILVGNKVDLEPEREVMSSEGRALAQEWGCPFMETSAKSKSMVDELFAEIVRQMNYSSLPEKQDQCCTTCVVQ
B3: VENUS-RIT2-G29V (protein, UniProt Q99578 1-217)
chain: MEVENEASCSPGSASGGSREYKVVMLGAVGVGKSAMTMQFISHQFPDYHDPTIEDAYKTQVRIDNEPAYLDILDTAGQAEFTAMREQYMRGGEGFIICYSVTDRQSFQEAAKFKELIFQVRHTYEIPLVLVGNKIDLEQFRQVSTEEGLSLAQEYNCGFFETSAALRFCIDDAFHGLVREIRKKESMPSLMEKKLKRKDSLWKKLKGSLKKKRENMT
B4: VENUS-tagged RASD1-A178V (protein, UniProt Q9Y272 1-281)
chain: MKLAAMIKKMCPSDSELSIPAKNCYRMVILGSSKVGKTAIVSRFLTGRFEDAYTPTIEDFHRKFYSIRGEVYQLDILDTSGNHPFPAMRRLSILTGDVFILVFSLDNRDSFEEVQRLRQQILDTKSCLKNKTKENVDVPLVICGNKGDRDFYREVDQREIEQLVGDDPQRCAYFEISVKKNSSLDQMFRALFAMAKLPSEMSPDLHRKVSVQYCDVLHKKALRNKKLLRAGSGGGGGDPGDAFGIVAPFARRPSVHSDLMYIREKASAGSQAKDKERCVIS
B5: VENUS-tagged, mutationally activated RASL11B (protein, UniProt Q9BPW5 1-248)
chain: MRLIQNMCTIAEYPAPGNAAASDCCVGAAGRRLVKIAVVGAVGVGKTALVVRFLTKRFIGDYERNAGNLYTRQVQIEGETLALQVQDTPGIQVHENSLSCSEQLNRCIRWADAVVIVFSITDYKSYELISQLHQHVQQLHLGTRLPVVVVANKADLLHIKQVDPQLGLQLASMLGCSFYEVSVSENYNDVYSAFHVLCKEVSHKQQPSSTPEKRRTSLIPRPKSPNMQDLKRRFKQALSAKVRTVTSV
B6: VENUS-tagged RHOBTB1 (wild-type) (protein, UniProt O94844 1-696)
chain: MDADMDYERPNVETIKCVVVGDNAVGKTRLICARACNTTLTQYQLLATHVPTVWAIDQYRVCQEVLERSRDVVDEVSVSLRLWDTFGDHHKDRRFAYGRSDVVVLCFSIANPNSLNHVKSMWYPEIKHFCPRTPVILVGCQLDLRYADLEAVNRARRPLARPIKRGDILPPEKGREVAKELGLPYYETSVFDQFGIKDVFDNAIRAALISRRHLQFWKSHLKKVQKPLLQAPFLPPKAPPPVIKIPECPSMGTNEAACLLDNPLCADVLFILQDQEHIFAHRIYLATSSSKFYDLFLMECEESPNGSEGACEKEKQSRDFQGRILSVDPEEEREEGPPRIPQADQWKSSNKSLVEALGLEAEGAVPETQTLTGWSKGFIGMHREMQVNPISKRMGPMTVVRMDASVQPGPFRTLLQFLYTGQLDEKEKDLVGLAQIAEVLEMFDLRMMVENIMNKEAFMNQEITKAFHVRKANRIKECLSKGTFSDVTFKLDDGAISAHKPLLICSCEWMAAMFGGSFVESANSEVYLPNINKISMQAVLDYLYTKQLSPNLDLDPLELIALANRFCLPHLVALAEQHAVQELTKAATSGVGIDGEVLSYLELAQFHNAHQLAAWCLHHICTNYNSVCSKFRKEIKSKSADNQEYFERHRWPPVWYLKEEDHYQRVKREREKEDIALNKHRSRRKWCFWNSSPAVA
B7: VENUS-tagged RHOBTB2 (wild-type) (protein, UniProt Q9BYZ6 1-727)
chain: MDSDMDYERPNVETIKCVVVGDNAVGKTRLICARACNATLTQYQLLATHVPTVWAIDQYRVCQEVLERSRDVVDDVSVSLRLWDTFGDHHKDRRFAYGRSDVVVLCFSIANPNSLHHVKTMWYPEIKHFCPRAPVILVGCQLDLRYADLEAVNRARRPLARPIKPNEILPPEKGREVAKELGIPYYETSVVAQFGIKDVFDNAIRAALISRRHLQFWKSHLRNVQRPLLQAPFLPPKPPPPIIVVPDPPSSSEECPAHLLEDPLCADVILVLQERVRIFAHKIYLSTSSSKFYDLFLMDLSEGELGGPSEPGGTHPEDHQGHSDQHHHHHHHHHGRDFLLRAASFDVCESVDEAGGSGPAGLRASTSDGILRGNGTGYLPGRGRVLSSWSRAFVSIQEEMAEDPLTYKSRLMVVVKMDSSIQPGPFRAVLKYLYTGELDENERDLMHIAHIAELLEVFDLRMMVANILNNEAFMNQEITKAFHVRRTNRVKECLAKGTFSDVTFILDDGTISAHKPLLISSCDWMAAMFGGPFVESSTREVVFPYTSKSCMRAVLEYLYTGMFTSSPDLDDMKLIILANRLCLPHLVALTEQYTVTGLMEATQMMVDIDGDVLVFLELAQFHCAYQLADWCLHHICTNYNNVCRKFPRDMKAMSPENQEYFEKHRWPPVWYLKEEDHYQRARKEREKEDYLHLKRQPKRRWLFWNSPSSPSSSAASSSSPSSSSAVV
B8: VENUS-tagged RHOH (wild-type) (protein, UniProt Q15669 1-191)
chain: MLSSIKCVLVGDSAVGKTSLLVRFTSETFPEAYKPTVYENTGVDVFMDGIQISLGLWDTAGNDAFRSIRPLSYQQADVVLMCYSVANHNSFLNLKNKWIGEIRSNLPCTPVLVVATQTDQREMGPHRASCVNAMEGKKLAQDVRAKGYLECSALSNRGVQQVFECAVRTAVNQARRRNRRRLFSINECKIF
B9: VENUS-RRAS2-G23V (protein, UniProt P62070 1-204)
chain: MAAAGWRDGSGQEKYRLVVVGGVGVGKSALTIQFIQSYFVTDYDPTIEDSYTKQCVIDDRAARLDILDTAGQEEFGAMREQYMRTGEGFLLVFSVTDRGSFEEIYKFQRQILRVKDRDEFPMILIGNKADLDHQRQVTQEEGQQLARQLKVTYMEASAKIRMNVDQAFHELVRVIRKFQEQECPPSPEPTRKEKDKKGCHCVIF
B10: VENUS-tagged RRAS Q87L (protein, UniProt P10301 1-218)
chain: MSSGAASGTGRGRPRGGGPGPGDPPPSETHKLVVVGGGGVGKSALTIQFIQSYFVSDYDPTIEDSYTKICSVDGIPARLDILDTAGLEEFGAMREQYMRAGHGFLLVFAINDRQSFNEVGKLFTQILRVKDRDDFPVVLVGNKADLESQRQVPRSEASAFGASHHVAYFEASAKLRLNVDEAFEQLVRAVRKYQEQELPPSPPSAPRKKGGGCPCVLL
B11: VENUS-tagged RRAS wild-type (protein, UniProt P10301 1-218)
chain: B10 chain with L87Q

Key:
[1] = biological target: GST-tagged RASSF5 RA domain (human) (UniProt Q8WWW0); assay: pull-down; systematic screen: 2 µM purified GST-tagged RBD/RA domain (or GST alone) and glutathione beads incubated 30 min with HEK 293T lysate expressing a VENUS-tagged GTPase; Bio-Spin columns on a vacuum manifold, washed three times with lysis buffer (20 mM Tris-HCl pH 7.5, 150 mM NaCl, 5 mM MgCl2, 10% glycerol, 1% Triton X-100, 1% NP-40, 1 mM DTT); Western blot; GST-alone signal subtracted; heatmap from two replicates; only the target purified
[2] = biological target: GST-tagged RASSF5 RA domain (human) (UniProt Q8WWW0); assay: pull-down; validation pull-downs (Fig. EV1C, Fig. 2A): recombinant purified GST-RASSF5 RA or GST alone with HEK 293T lysates expressing VENUS-tagged GTPases (activated, wild-type or dominant-negative variants); Western blot; only the target purified
[3] = biological target: GST-tagged RASSF8 RA domain (human) (UniProt Q8NHQ8); assay: pull-down; systematic screen: 2 µM purified GST-tagged RBD/RA domain (or GST alone) and glutathione beads incubated 30 min with HEK 293T lysate expressing a VENUS-tagged GTPase; Bio-Spin columns on a vacuum manifold, washed three times with lysis buffer (20 mM Tris-HCl pH 7.5, 150 mM NaCl, 5 mM MgCl2, 10% glycerol, 1% Triton X-100, 1% NP-40, 1 mM DTT); Western blot; GST-alone signal subtracted; heatmap from two replicates; only the target purified
[4] = biological target: GST-tagged RASSF3 RA domain (human) (UniProt Q86WH2); assay: as above
[5] = biological target: GST-tagged RASSF4 RA domain (human) (UniProt Q9H2L5); assay: as above

Binder	binding [1]	binding [2]	binding [3]	binding [4]	binding [5]
B1	binds	binds	–	–	–
B2	binds	binds	–	–	–
B3	binds	binds	–	–	–
B4	–	–	binds	–	–
B5	–	–	binds	–	–
B6	–	–	binds	binds	binds
B7	–	–	binds	binds	binds
B8	–	–	binds	binds	binds
B9	binds	binds	–	–	–
B10	–	binds	–	–	–
B11	–	binds	–	–	–
